From patent US11896675B2 (AbTis Co., Ltd., priority 2019, dated 2024)

Assay: peptide synthesis
Conditions: whole synthesis, analytical HPLC; molecular weight confirmed by LC/MS

| Substance | final HPLC purity |
| --- | --- |
| H-PEG8-Asp-Cys*-Ala-Trp-His-Orn-Gly-Glu-Leu-Val-Trp-Cys*-Thr-NH2 | 90% or more |
| H-PEG8-Asp-Cys*-Ala-Trp-His-Lys-Gly-Glu-Leu-Val-Trp-Cys*-Thr-NH2 | 90% or more |
